Data from paper PMC8242086.
Results are given in words; binding and its absence hold for the method and conditions named. In cells and extracts the contact can be indirect. Some binding calls cover weakened binding; strength is not graded here. Sequences can lack the tags named with a protein.

Assays:
Assay in all cases: co-IP; GFP-tagged proteins immunoprecipitated from 1% Triton X-100 extracts of spheroplasts with monoclonal anti-GFP antibody and protein A Sepharose, room temperature, 4 h; lysis buffer 150 mM NaCl, 10 mM HEPES-KOH pH 7.5, 5 mM MgCl2, 1 mM PMSF; blotted with anti-GFP or anti-Got1p
[1] = target: T1, SpVrg4p-GFP S263C A271V double mutant (S. pombe) (UniProt Q9UTK8)
T1 sequence: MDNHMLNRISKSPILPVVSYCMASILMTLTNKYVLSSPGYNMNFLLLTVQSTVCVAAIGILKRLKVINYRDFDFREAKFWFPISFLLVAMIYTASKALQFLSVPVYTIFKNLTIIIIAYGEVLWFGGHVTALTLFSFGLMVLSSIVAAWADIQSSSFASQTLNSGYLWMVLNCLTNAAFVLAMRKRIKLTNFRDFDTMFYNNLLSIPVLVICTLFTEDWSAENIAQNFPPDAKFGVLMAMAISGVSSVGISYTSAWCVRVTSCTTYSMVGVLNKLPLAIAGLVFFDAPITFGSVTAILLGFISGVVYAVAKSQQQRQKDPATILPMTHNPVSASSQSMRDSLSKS

[2] = target: T2, SpVrg4p-GFP (wild type) (S. pombe) (UniProt Q9UTK8)
T2 sequence: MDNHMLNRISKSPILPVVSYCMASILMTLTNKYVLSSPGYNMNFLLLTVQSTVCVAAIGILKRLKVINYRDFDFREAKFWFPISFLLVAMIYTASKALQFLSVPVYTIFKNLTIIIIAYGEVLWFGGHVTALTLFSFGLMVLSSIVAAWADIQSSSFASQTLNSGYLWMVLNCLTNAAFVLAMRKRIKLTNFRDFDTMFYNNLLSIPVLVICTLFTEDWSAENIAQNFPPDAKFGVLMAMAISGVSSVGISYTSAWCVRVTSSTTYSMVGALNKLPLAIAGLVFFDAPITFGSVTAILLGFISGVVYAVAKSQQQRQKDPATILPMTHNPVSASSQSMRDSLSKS

[3] = target: T3, SpVrg4p-GFP A271V (S. pombe) (UniProt Q9UTK8)
T3 sequence: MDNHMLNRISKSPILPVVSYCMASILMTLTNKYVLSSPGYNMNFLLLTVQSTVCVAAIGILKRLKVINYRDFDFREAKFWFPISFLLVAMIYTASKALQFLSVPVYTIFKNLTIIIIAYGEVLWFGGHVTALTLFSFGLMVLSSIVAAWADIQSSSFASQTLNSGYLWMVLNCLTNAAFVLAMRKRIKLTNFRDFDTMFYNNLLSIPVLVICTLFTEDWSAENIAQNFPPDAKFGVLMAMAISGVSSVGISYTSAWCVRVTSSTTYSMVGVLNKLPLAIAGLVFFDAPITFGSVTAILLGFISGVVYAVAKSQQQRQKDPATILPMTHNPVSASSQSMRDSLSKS

[4] = target: T4, SpVrg4p-GFP S263C (S. pombe) (UniProt Q9UTK8)
T4 sequence: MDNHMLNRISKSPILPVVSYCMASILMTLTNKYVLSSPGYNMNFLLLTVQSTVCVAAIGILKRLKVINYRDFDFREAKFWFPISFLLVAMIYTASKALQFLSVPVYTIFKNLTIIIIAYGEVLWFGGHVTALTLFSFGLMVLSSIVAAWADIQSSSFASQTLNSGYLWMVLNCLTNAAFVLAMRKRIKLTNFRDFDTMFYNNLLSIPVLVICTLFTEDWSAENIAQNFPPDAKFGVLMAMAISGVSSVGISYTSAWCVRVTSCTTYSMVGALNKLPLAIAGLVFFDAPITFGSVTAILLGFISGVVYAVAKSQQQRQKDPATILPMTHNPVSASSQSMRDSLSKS

binding [1]: no binding
binding [2]: binds
binding [3]: no binding
binding [4]: no binding
B1: Got1p (protein, UniProt Q9USJ2 1-129)
chain: MWLSDLQKIGVGTTALGFLFMIMGIFMFFDGPLLSLGNLLLVFGFFMIAGFSKSVSFFLRKDRMLGSISFFSGLLLTLFHFPIIGFFVECLGFFNLFKVFYPLIISFLRTVPYIGPYIDRLTSYQQSPV
